We go through 24 targets from the supplement of paper PMC6411743.

Amino acid sequences for entries named in this document (tags omitted). A change or cut given only in a name is not applied to a line headed by its entry.
UniProt Q9Y365: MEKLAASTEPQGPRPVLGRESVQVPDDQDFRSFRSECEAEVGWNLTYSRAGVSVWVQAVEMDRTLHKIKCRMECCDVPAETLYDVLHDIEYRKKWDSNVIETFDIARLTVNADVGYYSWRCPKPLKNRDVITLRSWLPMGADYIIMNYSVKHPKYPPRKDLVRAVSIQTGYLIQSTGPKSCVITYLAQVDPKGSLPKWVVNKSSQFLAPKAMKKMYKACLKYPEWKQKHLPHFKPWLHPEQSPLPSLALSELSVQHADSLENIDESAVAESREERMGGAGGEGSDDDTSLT
UniProt O95999: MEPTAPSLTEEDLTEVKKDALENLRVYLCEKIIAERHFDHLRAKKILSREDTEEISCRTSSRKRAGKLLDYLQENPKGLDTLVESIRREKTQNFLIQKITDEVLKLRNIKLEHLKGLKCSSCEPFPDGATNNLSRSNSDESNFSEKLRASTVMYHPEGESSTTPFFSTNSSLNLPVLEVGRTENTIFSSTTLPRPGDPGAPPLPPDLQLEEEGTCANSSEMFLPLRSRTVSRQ
UniProt O43681: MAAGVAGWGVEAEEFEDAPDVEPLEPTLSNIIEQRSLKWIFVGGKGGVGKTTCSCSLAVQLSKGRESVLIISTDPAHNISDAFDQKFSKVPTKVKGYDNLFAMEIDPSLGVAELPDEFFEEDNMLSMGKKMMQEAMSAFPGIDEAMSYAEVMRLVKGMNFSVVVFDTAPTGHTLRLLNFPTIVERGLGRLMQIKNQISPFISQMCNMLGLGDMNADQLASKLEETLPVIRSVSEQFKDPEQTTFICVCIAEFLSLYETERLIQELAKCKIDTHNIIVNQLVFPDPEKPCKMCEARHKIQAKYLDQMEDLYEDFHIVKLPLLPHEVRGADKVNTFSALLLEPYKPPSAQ
UniProt Q969V6: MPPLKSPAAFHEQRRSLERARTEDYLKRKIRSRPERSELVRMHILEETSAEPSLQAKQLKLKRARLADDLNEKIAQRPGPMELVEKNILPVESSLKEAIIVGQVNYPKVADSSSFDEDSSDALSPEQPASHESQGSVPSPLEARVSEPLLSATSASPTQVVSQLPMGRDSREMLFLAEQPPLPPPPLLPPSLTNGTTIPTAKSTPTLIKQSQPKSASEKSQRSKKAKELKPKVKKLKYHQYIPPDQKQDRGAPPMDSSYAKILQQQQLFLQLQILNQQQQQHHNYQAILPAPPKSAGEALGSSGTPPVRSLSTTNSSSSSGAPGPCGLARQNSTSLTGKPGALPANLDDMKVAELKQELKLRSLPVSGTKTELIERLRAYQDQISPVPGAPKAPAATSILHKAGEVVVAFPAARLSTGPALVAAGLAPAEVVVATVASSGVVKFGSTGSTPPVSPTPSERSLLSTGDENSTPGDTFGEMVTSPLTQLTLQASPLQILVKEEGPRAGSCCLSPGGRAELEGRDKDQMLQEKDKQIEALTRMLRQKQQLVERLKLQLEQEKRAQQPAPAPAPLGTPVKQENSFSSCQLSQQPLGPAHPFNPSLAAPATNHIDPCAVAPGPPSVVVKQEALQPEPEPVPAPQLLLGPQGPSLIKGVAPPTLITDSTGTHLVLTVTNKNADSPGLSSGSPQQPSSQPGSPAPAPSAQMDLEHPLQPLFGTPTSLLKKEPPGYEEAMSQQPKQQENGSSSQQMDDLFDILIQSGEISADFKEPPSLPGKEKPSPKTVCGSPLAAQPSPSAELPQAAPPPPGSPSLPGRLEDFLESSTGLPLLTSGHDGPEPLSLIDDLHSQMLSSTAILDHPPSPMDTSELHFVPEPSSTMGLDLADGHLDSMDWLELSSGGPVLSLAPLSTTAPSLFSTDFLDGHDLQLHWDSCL
UniProt Q9Y5U8: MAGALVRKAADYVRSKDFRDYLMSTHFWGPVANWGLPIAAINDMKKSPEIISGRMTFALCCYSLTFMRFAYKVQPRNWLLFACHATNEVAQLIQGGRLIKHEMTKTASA
UniProt Q9Y4E1, whole entry: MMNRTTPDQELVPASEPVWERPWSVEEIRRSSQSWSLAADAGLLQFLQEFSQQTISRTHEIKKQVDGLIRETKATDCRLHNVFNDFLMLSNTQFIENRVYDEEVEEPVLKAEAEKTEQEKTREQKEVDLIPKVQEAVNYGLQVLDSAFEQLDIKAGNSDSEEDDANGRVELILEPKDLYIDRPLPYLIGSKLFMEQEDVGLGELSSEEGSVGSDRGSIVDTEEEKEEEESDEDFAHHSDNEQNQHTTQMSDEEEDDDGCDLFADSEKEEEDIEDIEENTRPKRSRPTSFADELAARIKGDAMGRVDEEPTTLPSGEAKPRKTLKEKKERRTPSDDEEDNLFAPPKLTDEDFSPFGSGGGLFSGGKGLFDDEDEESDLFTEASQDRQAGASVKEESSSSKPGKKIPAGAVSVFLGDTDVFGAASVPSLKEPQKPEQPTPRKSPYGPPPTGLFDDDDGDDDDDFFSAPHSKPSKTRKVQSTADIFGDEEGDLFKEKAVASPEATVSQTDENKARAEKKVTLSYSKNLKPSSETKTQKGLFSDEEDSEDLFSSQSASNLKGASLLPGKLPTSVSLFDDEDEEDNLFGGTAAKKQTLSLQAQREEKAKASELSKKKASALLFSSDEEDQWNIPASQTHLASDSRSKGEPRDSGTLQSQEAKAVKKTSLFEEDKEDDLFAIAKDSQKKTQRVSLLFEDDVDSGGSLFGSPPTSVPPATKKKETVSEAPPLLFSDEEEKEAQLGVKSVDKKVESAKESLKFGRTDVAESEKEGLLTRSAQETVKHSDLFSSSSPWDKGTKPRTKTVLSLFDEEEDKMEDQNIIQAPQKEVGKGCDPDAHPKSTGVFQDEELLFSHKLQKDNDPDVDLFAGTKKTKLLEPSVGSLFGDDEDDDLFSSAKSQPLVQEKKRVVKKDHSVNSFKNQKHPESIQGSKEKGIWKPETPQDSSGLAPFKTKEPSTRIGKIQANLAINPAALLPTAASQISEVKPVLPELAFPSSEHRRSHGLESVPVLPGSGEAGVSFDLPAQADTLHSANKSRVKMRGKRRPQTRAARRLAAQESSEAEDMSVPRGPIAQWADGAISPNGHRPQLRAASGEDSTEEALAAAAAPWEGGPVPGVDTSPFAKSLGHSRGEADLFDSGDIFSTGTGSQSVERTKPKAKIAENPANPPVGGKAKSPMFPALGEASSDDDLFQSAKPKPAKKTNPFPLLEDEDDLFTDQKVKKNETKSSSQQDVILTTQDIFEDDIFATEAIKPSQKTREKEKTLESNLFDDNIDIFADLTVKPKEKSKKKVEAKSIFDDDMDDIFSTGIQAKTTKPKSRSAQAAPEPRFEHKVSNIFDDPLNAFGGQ
UniProt Q8IWB9: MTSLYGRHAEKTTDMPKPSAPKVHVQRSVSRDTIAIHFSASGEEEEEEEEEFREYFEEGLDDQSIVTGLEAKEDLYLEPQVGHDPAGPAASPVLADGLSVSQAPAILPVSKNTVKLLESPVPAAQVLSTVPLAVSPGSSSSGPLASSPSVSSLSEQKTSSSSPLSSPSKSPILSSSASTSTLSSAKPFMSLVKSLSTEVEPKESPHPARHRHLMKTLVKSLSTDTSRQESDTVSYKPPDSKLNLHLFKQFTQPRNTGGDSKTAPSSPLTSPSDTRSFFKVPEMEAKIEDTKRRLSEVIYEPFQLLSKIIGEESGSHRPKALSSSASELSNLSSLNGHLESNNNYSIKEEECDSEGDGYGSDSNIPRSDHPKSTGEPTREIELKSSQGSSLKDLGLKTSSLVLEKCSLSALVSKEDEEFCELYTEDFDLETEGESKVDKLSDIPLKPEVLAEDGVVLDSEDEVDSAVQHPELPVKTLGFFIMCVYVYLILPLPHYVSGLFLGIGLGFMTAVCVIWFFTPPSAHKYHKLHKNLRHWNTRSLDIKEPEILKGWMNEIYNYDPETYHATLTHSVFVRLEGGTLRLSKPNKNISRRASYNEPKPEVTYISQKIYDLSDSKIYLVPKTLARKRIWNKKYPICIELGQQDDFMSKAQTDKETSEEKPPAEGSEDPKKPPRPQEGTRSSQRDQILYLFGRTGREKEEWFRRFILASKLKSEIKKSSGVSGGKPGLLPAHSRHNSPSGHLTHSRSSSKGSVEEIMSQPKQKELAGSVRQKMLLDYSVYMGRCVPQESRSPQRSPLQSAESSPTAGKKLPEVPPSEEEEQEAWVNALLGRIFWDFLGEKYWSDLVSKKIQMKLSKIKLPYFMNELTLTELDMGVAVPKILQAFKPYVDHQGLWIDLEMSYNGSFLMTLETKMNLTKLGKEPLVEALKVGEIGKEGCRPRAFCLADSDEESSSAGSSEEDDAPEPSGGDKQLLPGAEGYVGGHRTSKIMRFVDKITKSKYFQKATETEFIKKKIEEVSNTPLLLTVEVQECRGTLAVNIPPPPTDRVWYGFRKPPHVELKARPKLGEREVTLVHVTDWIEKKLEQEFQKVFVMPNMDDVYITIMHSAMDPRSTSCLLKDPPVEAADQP
UniProt P04632: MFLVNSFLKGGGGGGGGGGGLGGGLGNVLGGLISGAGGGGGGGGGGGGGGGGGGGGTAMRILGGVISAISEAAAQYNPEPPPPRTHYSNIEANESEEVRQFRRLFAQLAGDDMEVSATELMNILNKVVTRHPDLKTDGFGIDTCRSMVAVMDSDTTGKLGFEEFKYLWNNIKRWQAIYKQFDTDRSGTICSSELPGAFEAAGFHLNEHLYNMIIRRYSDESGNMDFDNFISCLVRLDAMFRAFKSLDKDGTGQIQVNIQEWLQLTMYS
UniProt Q5VWQ0: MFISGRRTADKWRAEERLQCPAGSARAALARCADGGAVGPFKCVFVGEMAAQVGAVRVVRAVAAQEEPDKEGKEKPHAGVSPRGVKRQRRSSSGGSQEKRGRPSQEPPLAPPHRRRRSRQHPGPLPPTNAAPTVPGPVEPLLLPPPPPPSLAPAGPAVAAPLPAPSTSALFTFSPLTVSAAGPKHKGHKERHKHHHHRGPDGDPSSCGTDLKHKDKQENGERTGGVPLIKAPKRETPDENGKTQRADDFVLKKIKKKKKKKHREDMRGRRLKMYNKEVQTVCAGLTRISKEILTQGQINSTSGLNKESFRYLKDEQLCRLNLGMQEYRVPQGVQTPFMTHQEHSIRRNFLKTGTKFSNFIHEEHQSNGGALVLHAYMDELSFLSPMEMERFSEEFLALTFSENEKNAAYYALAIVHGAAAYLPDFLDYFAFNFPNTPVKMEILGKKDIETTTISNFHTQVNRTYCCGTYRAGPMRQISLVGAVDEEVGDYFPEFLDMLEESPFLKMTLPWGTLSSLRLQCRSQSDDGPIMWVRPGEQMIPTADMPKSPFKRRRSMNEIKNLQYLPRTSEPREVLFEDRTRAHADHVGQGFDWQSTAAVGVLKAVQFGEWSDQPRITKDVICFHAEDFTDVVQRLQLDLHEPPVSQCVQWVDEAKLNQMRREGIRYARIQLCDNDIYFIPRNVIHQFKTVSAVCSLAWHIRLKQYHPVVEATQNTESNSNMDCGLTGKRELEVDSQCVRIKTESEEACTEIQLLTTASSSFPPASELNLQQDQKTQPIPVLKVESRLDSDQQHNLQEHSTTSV
UniProt Q9Y4K4: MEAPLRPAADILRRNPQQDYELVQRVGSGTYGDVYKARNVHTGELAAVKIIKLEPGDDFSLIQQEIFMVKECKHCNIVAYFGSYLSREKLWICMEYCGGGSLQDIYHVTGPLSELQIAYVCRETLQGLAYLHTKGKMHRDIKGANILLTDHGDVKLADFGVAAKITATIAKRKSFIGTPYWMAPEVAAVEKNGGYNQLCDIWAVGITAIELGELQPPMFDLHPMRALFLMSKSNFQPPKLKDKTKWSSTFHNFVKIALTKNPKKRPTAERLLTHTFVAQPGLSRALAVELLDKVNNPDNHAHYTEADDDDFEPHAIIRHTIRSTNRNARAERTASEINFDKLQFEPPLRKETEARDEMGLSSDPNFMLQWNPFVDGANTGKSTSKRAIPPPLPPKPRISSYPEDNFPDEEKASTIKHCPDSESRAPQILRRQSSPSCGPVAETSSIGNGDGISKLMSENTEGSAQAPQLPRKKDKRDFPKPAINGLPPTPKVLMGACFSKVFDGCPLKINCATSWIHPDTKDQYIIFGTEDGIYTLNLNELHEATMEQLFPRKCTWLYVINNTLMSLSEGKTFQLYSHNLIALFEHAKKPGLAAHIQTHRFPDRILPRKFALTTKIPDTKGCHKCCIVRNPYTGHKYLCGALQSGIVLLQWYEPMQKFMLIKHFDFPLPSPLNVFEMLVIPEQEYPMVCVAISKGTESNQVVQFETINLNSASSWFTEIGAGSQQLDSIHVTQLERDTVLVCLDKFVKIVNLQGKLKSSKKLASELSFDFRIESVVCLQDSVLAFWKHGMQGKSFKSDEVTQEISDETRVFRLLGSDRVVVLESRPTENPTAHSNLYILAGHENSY

± gives the standard deviation of the averaged measurements. The entries are a selection whose mix differs from that of the whole data set. Most entries show no effect beyond the scatter of the controls.

Compound in the assay: Nc1ncnc2c1ncn2[C@@H]1O[C@H](COP(=O)(O)OP(=O)(O)OP(=O)(O)O)[C@@H](O)[C@H]1O [adenosine triphosphate]
The assay can be described thus: NP40-soluble protein abundance relative to vehicle (solubility fold change) (ratio); higher = more soluble protein in presence of ATP. The essentials: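 Each value is a fold change relative to the detergent-processed vehicle, calculated per replicate from vsn-normalised intensities. Jurkat crude lysate received eight concentrations (0.1 to 10 mM) for 10 min at room temperature and 3 min at 37 °C, then was solubilised in 0.8% NP40 with benzonase (60 min, 4 °C). The ultracentrifuged supernatant was TMT-labelled and run by LC-MS/MS in three independent experiments.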

For “A0A087WWH3|Q9NZM4 and related entries (UniProt Q9NZM4)”, the NP40-soluble protein abundance worked out at 0.989 ± 0.15 (concentration: 0.1mM) and 1.02 ± 0.14 (concentration: 0.5mM).

In the case of “A0A087WXR2|F5H1Z6 and related entries (UniProt Q9Y365)”, the NP40-soluble protein abundance by setting is: (concentration: 0.1mM) 1.06 ± 0.086; (concentration: 0.5mM) 1.03 ± 0.055.

On to A0A087WWW9|O95999 (UniProt O95999), for which the NP40-soluble protein abundance by setting is: (concentration: 0.1mM) 0.945 ± 0.054; (concentration: 0.5mM) 0.954 ± 0.04.

“A0A087WXS7|K7ERW9 and related entries (UniProt O43681)”: the NP40-soluble protein abundance was found to be 1.05 ± 0.082 (concentration: 0.1mM) and 0.9666 ± 0.0085 (concentration: 0.5mM).

On to “A0A087X0R0|F5H6S1 and related entries (UniProt O15550)”, for which the NP40-soluble protein abundance is, setting by setting: (concentration: 0.1mM) 0.999 ± 0.063; (concentration: 0.5mM) 1.01 ± 0.1.

In the case of “A0A087WY71|Q96CW1 and related entries (UniProt Q96CW1)”, the NP40-soluble protein abundance amounted to 1.07 ± 0.054 (concentration: 0.1mM) and 1.08 ± 0.012 (concentration: 0.5mM).

In the case of “A0A087WU73|A0A087X287|B0QY83 and related entries (UniProt Q969V6)”, the NP40-soluble protein abundance came out at 1 ± 0.14 (concentration: 0.1mM) and 0.904 ± 0.15 (concentration: 0.5mM).

Turning to A0A087WXI0 (UniProt Q7Z6P3), the NP40-soluble protein abundance by setting is: (concentration: 0.1mM) 0.978 ± 0.03; (concentration: 0.5mM) 0.971 ± 0.05.

As to A0A087WVZ0|Q9Y5U8 (UniProt Q9Y5U8), the NP40-soluble protein abundance turned out to be 0.972 ± 0.058 (concentration: 0.1mM) and 0.968 ± 0.033 (concentration: 0.5mM).

On to “A0A096LPC5|A0A0A0MR88|Q9Y4E1-4|Q9Y4E1-6 (UniProt Q9Y4E1)”, for which the NP40-soluble protein abundance came to 0.99 ± 0.059 (concentration: 0.1mM) and 0.971 ± 0.082 (concentration: 0.5mM).

Turning to “A0A087WXC5|O95299 and related entries (UniProt O95299)”, the NP40-soluble protein abundance by setting is: (concentration: 0.1mM) 1.01 ± 0.072; (concentration: 0.5mM) 1.06 ± 0.055; (concentration: 1mM) 1.03 ± 0.024; (concentration: 2mM) 1.02 ± 0.033; (concentration: 4mM) 0.982 ± 0.034; (concentration: 6mM) 1 ± 0.022. Besides, the NP40-soluble protein abundance runs as follows: (concentration: 8mM) 1.02 ± 0.023; (concentration: 10mM) 1 ± 0.034.

Regarding “A0A0D9SEU5|Q6VN20 and related entries (UniProt Q6VN20)”, the NP40-soluble protein abundance turned out to be 0.998 ± 0.025 (concentration: 0.1mM); 1.03 ± 0.063 (concentration: 0.5mM); 0.968 ± 0.017 (concentration: 1mM); 0.944 ± 0.05 (concentration: 2mM); 0.979 ± 0.02 (concentration: 4mM); 0.996 ± 0.11 (concentration: 6mM). For the same target, the NP40-soluble protein abundance is 0.935 ± 0.028 (concentration: 8mM) and 0.951 ± 0.036 (concentration: 10mM).

In the case of “A0A087WVA8|Q8IWB9 and related entries (UniProt Q8IWB9)”, the NP40-soluble protein abundance is 0.995 ± 0.024 (concentration: 0.1mM); 1.01 ± 0.074 (concentration: 0.5mM); 1.02 ± 0.043 (concentration: 1mM); 0.975 ± 0.072 (concentration: 2mM); 0.984 ± 0.062 (concentration: 4mM); 0.982 ± 0.024 (concentration: 6mM). The NP40-soluble protein abundance worked out at 0.973 ± 0.07 (concentration: 8mM) and 0.993 ± 0.052 (concentration: 10mM).

As to “A0A087WTF0|A2A3K4 and related entries (UniProt A2A3K4)”, the NP40-soluble protein abundance (concentration: 0.1mM) amounted to 0.992 ± 0.068 and the NP40-soluble protein abundance (concentration: 0.5mM) is 1.12 ± 0.26.

Take A0A087X176|Q6ZRP7 (UniProt Q6ZRP7): the NP40-soluble protein abundance stood at 0.996 ± 0.071 (concentration: 0.1mM); 0.987 ± 0.046 (concentration: 0.5mM); 0.958 ± 0.057 (concentration: 1mM); 0.983 ± 0.011 (concentration: 2mM); 0.961 ± 0.028 (concentration: 4mM); 0.99 ± 0.029 (concentration: 6mM). Besides, the NP40-soluble protein abundance (concentration: 8mM) came to 0.953 ± 0.026 and the NP40-soluble protein abundance (concentration: 10mM) was 0.96 ± 0.037.

For the target A0A0C4DGQ5|P04632 (UniProt P04632), the NP40-soluble protein abundance is, setting by setting: (concentration: 0.1mM) 0.946 ± 0.024; (concentration: 0.5mM) 0.853 ± 0.11; (concentration: 1mM) 0.9315 ± 0.0081; (concentration: 2mM) 0.964 ± 0.077; (concentration: 4mM) 0.923 ± 0.022; (concentration: 6mM) 0.884 ± 0.039. Also, the NP40-soluble protein abundance runs as follows: (concentration: 8mM) 0.885 ± 0.0089; (concentration: 10mM) 0.875 ± 0.06.

As to “A0A0A6YYA7|Q12851 and related entries (UniProt Q12851)”, the NP40-soluble protein abundance came to 1.04 ± 0.052 (concentration: 0.1mM); 1.03 ± 0.031 (concentration: 0.5mM); 1.02 ± 0.026 (concentration: 1mM); 1 ± 0.044 (concentration: 2mM); 1.03 ± 0.063 (concentration: 4mM); 0.994 ± 0.079 (concentration: 6mM). Further, the NP40-soluble protein abundance (concentration: 8mM) was 0.994 ± 0.026 and the NP40-soluble protein abundance (concentration: 10mM) came to 0.998 ± 0.027.

On to “A0A087WYG2|E9PFH7 and related entries (UniProt Q9UPT6)”, for which the NP40-soluble protein abundance came out at 1.01 ± 0.066 (concentration: 0.1mM); 1.04 ± 0.12 (concentration: 0.5mM); 0.979 ± 0.055 (concentration: 1mM); 0.996 ± 0.054 (concentration: 2mM); 0.993 ± 0.097 (concentration: 4mM); 0.988 ± 0.094 (concentration: 6mM). Also, the NP40-soluble protein abundance is, setting by setting: (concentration: 8mM) 0.959 ± 0.066; (concentration: 10mM) 0.956 ± 0.029.

As for “A0A087WY00|F8W6H6 and related entries (UniProt Q9Y4I1)”, the NP40-soluble protein abundance (concentration: 0.1mM) was 0.964 ± 0.048; the NP40-soluble protein abundance (concentration: 0.5mM) was found to be 2.74 ± 0.16; the NP40-soluble protein abundance (concentration: 1mM) was determined as 2.94 ± 0.086; the NP40-soluble protein abundance (concentration: 2mM) came to 2.89 ± 0.071; the NP40-soluble protein abundance (concentration: 4mM) turned out to be 2.94 ± 0.14; the NP40-soluble protein abundance (concentration: 6mM) was 2.96 ± 0.19. The NP40-soluble protein abundance turned out to be 2.96 ± 0.088 (concentration: 8mM) and 2.84 ± 0.062 (concentration: 10mM).

In the case of A0A087WWP8 (UniProt Q5VWQ0), the NP40-soluble protein abundance (concentration: 0.1mM) was determined as 1.1 ± 0.022; the NP40-soluble protein abundance (concentration: 0.5mM) was 1.41 ± 0.078; the NP40-soluble protein abundance (concentration: 1mM) was found to be 1.48 ± 0.058; the NP40-soluble protein abundance (concentration: 2mM) stood at 1.53 ± 0.045; the NP40-soluble protein abundance (concentration: 4mM) is 1.61 ± 0.043; the NP40-soluble protein abundance (concentration: 6mM) amounted to 1.68 ± 0.048. For the same target, the NP40-soluble protein abundance runs as follows: (concentration: 8mM) 1.68 ± 0.069; (concentration: 10mM) 1.69 ± 0.063.

For the target A0A0B4J220 (UniProt E9PRG8), the NP40-soluble protein abundance reads like this: (concentration: 0.1mM) 0.988 ± 0.06; (concentration: 0.5mM) 0.991 ± 0.017; (concentration: 1mM) 1.02 ± 0.028; (concentration: 2mM) 1.11 ± 0.066; (concentration: 4mM) 1.27 ± 0.17; (concentration: 6mM) 1.31 ± 0.091. The NP40-soluble protein abundance (concentration: 8mM) was 1.42 ± 0.27 and the NP40-soluble protein abundance (concentration: 10mM) came out at 1.56 ± 0.23.

Regarding A0A087WWS1|Q96FV9 (UniProt Q96FV9), the NP40-soluble protein abundance is, setting by setting: (concentration: 0.1mM) 1.05 ± 0.052; (concentration: 0.5mM) 1.37 ± 0.09; (concentration: 1mM) 1.509 ± 0.011; (concentration: 2mM) 1.65 ± 0.068; (concentration: 4mM) 1.89 ± 0.099; (concentration: 6mM) 2.14 ± 0.2. Further, the NP40-soluble protein abundance reads like this: (concentration: 8mM) 2.31 ± 0.075; (concentration: 10mM) 2.4 ± 0.13.

Turning to A0A0A0MTG4|P82094 (UniProt P82094), the NP40-soluble protein abundance is, setting by setting: (concentration: 0.1mM) 0.9808 ± 0.0097; (concentration: 0.5mM) 0.986 ± 0.04.

As to A0A0A0MQR1|Q9Y4K4 (UniProt Q9Y4K4), the NP40-soluble protein abundance (concentration: 0.1mM) was 1.04 ± 0.021 and the NP40-soluble protein abundance (concentration: 0.5mM) came to 1.01 ± 0.036.
